Laboratory results: PubChem BioAssay AID504793 (Drosophila RNAi Screening Center, 2011)

Screen: 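Genes required for cells to halt at G2/M after double-strand DNA breaks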 (primary screen)
Cell system: Drosophila S2R+ cells
Knock-down reagent: long dsRNA against Drosophila genes, about 0.25 µg dsRNA per well
Duration: 4 days of dsRNA, then 4 hours of drug before read-out
Treatment: doxorubicin 0.5 µM for 4 hours to cause double-strand breaks, in cells also given a low, harmless dose of dsRNA against nbs to sensitise the assay
Detection: 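Per-well count of mitotic cells stained for phospho-histone H3 after doxorubicin exposure, used as mitotic index; counts are raw and not normalised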
Direction: mitotic cells: higher = more cells in mitosis, weaker G2 arrest
Rule for the call: 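Genes are called active only when high mitotic counts were reproduced with independent dsRNAs and mitosis was checked for delay without damage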
Meaning of the calls: active = confirmed in follow-up tests; inactive = not confirmed
The deposit covers about 23,000 reagents; below is a random part of those with a known target gene and a result. Of all reagents, 62 (0.27%) were called active. 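Calls come from follow-up tests whose scores are not deposited, so confirmed genes may have low counts here; counts are not normalised per plate.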 The raw values are shown without normalisation. Names joined by + are all predicted targets of the reagent. No sequences are given here.

no.	target gene	amplicon	mitotic cells, replicate 1	mitotic cells, replicate 2	Call
1	CG42232	DRSC15018	10		inactive
2	CG42232	DRSC15019	7		inactive
3	CG42232	DRSC29868	3		inactive
4	Amy-d + Amy-p	DRSC21242	7		inactive
5	Amy-d + Amy-p	DRSC24129	6		inactive
6	CG8252	DRSC07126	9		inactive
7	CG8252	DRSC29694	9		inactive
8	SP (Sex Peptide)	DRSC09664	6		inactive
9	CG10681	DRSC09777	5		inactive
10	CG10681	DRSC21484	8		inactive
11	CG10681	DRSC27329	6		inactive
12	CG31910	DRSC28186	7		inactive
13	CG9344	DRSC04541	3		inactive
14	CG15635	DRSC00470	13		inactive
15	CG15635	DRSC22873	7		inactive
16	CG30429	DRSC04040	6		inactive
17	Mst89B	DRSC16748	8		inactive
18	CG31454	DRSC14365	3		inactive
19	CG31454	DRSC22801	10		inactive
20	CG31454	DRSC24377	8		inactive
21	cpo (couch potato)	DRSC13265	8		inactive
22	Vps24 (Vacuolar protein sorting 24)	DRSC12332	7	8	inactive
23	Vps24 (Vacuolar protein sorting 24)	DRSC29224	6		inactive
24	CG1233	DRSC08269	4		inactive
25	CG1233	DRSC26110	6		inactive
26	CG9555	DRSC03264	5		inactive
27	CG9555	DRSC25330	2		inactive
28	Prp8 (pre-mRNA processing factor 8)	DRSC07293	3		inactive
29	Hmg-2 (High mobility group protein 2)	DRSC04554	6		inactive
30	Hmg-2 (High mobility group protein 2)	DRSC25355	15		inactive
31	Obp19c (Odorant-binding protein 19c)	DRSC20528	13		inactive
32	CG11523	DRSC11669	9		inactive
33	CG11523	DRSC26429	3		inactive
34	CG8788	DRSC07267	6		inactive
35	fzr (fizzy-related)	DRSC18781	15		inactive
36	fzr (fizzy-related)	DRSC28236	5		inactive
37	kri (krishah)	DRSC10515	5		inactive
38	Mpc1	DRSC14770	6		inactive
39	oxt (peptide O-xylosyltransferase)	DRSC08522	7		inactive
40	CG9525	DRSC03249	1		inactive
41	Elk (Eag-like K[+] channel)	DRSC07608	5		inactive
42	Acbp6 (Acyl-CoA binding protein 6)	DRSC10217			inactive

15 consecutive records already listed:
no.	target gene	amplicon	mitotic cells, replicate 1	mitotic cells, replicate 2	Call
12	CG31910	DRSC28186	7		inactive
13	CG9344	DRSC04541	3		inactive
14	CG15635	DRSC00470	13		inactive
15	CG15635	DRSC22873	7		inactive
16	CG30429	DRSC04040	6		inactive
17	Mst89B	DRSC16748	8		inactive
18	CG31454	DRSC14365	3		inactive
19	CG31454	DRSC22801	10		inactive
20	CG31454	DRSC24377	8		inactive
21	cpo (couch potato)	DRSC13265	8		inactive
22	Vps24 (Vacuolar protein sorting 24)	DRSC12332	7	8	inactive
23	Vps24 (Vacuolar protein sorting 24)	DRSC29224	6		inactive
24	CG1233	DRSC08269	4		inactive
25	CG1233	DRSC26110	6		inactive
26	CG9555	DRSC03264	5		inactive

The results go on.
no.	target gene	amplicon	mitotic cells, replicate 1	mitotic cells, replicate 2	Call
43	Golgin245 (Golgin-245)	DRSC04374	8		inactive
44	Golgin245 (Golgin-245)	DRSC22012	7		inactive
45	Golgin245 (Golgin-245)	DRSC30015	13		inactive
46	Atg4b (Autophagy-related 4b)	DRSC15988	6		inactive
47	Atg4b (Autophagy-related 4b)	DRSC25480	1		inactive
48	Ubi-p63E (Ubiquitin-63E)	DRSC22016	10		inactive
49	CG11436	DRSC17783	2		inactive
50	CG15107	DRSC23406	8		inactive
51	gkt (glaikit)	DRSC00821	3		inactive
52	CG32071	DRSC22298	6		inactive
53	CG32071	DRSC25705	13		inactive
54	CG7607	DRSC10889	3		inactive
55	CG8323	DRSC07149	15		inactive
56	plum	DRSC16054	5		inactive
57	Gat (GABA transporter)	DRSC17144	12		inactive
58	Zip88E (Zinc/iron regulated transporter-related protein 88E)	DRSC15562	1		inactive
59	Zip88E (Zinc/iron regulated transporter-related protein 88E)	DRSC25826	6		inactive
60	VhaM9.7-b (Vacuolar H[+] ATPase M9.7 subunit b)	DRSC11841	9		inactive
61	fzo (fuzzy onions)	DRSC16954	14		inactive
62	Nepl14 (Neprilysin-like 14)	DRSC15631	9		inactive
63	CG34286	DRSC21790	10		inactive
64	Paip2 (polyA-binding protein interacting protein 2)	DRSC14504	12		inactive
65	CG44774	DRSC18342	17		inactive
66	CG44774	DRSC27595	4		inactive
67	Cyt-b5 (Cytochrome b5)	DRSC07392	4		inactive
68	Srp14 (Signal recognition particle 14)	DRSC15797	17		inactive
69	CG42335	DRSC14597	7		inactive
70	CG42335	DRSC15892	8		inactive
71	CG42335	DRSC25666	7		inactive
72	CG12516	DRSC14524	10		inactive
73	VhaAC39-1 (Vacuolar H[+] ATPase AC39 subunit 1)	DRSC18242	8		inactive
74	VhaAC39-1 (Vacuolar H[+] ATPase AC39 subunit 1)	DRSC27608	6		inactive
75	fh (frataxin)	DRSC18430	10		inactive
76	wal (walrus)	DRSC07717	4		inactive
77	wal (walrus)	DRSC26330	5		inactive
78	Papss (PAPS synthetase)	DRSC11246	10		inactive
79	Papss (PAPS synthetase)	DRSC27101	6		inactive
80	Zw (Zwischenferment)	DRSC20303	7		inactive
81	Zw (Zwischenferment)	DRSC27667	5		inactive
82	Nplp3 (Neuropeptide-like precursor 3)	DRSC25046	5		inactive
83	GM130 (Golgi matrix protein 130 kD)	DRSC04617	8		inactive
84	CG8565	DRSC20112	12		inactive
85	ms(2)35Ci (male sterile (2) 35Ci)	DRSC01460	7		inactive
86	msopa (male-specific opa containing gene)	DRSC23240	2		inactive
87	CG11381	DRSC17780	5		inactive
88	CG11381	DRSC25125	12		inactive
89	HDAC1 (Histone deacetylase 1)	DRSC08696	6		inactive
90	Drl-2 (Derailed 2)	DRSC05393	7		inactive
91	Drl-2 (Derailed 2)	DRSC06155	6		inactive
92	Drl-2 (Derailed 2)	DRSC06858	7		inactive
93	CG17618 (retired record) + CG45049	DRSC16163	2		inactive
94	CG17618 (retired record) + CG45049	DRSC23175	2		inactive
95	Tsp5D (Tetraspanin 5D)	DRSC18380	14		inactive
96	CG17266	DRSC04979	5		inactive
97	CG17266	DRSC22368	8		inactive
98	CG17266	DRSC24207	6		inactive
99	Cpes (Ceramide phosphoethanolamine synthase)	DRSC04475	8		inactive
100	Cpes (Ceramide phosphoethanolamine synthase)	DRSC27503	3		inactive
101	CG33453	DRSC05782	8		inactive
102	l(2)k09913 (lethal (2) k09913)	DRSC04699	7		inactive
103	CG5388	DRSC15789	2		inactive
104	Trf2 (TATA box binding protein-related factor 2)	DRSC18727	3		inactive
105	Trf2 (TATA box binding protein-related factor 2)	DRSC29152	10		inactive
106	Tom20 (Translocase of outer membrane 20)	DRSC10899	5		inactive
107	simj (simjang)	DRSC10942	2		inactive
108	simj (simjang)	DRSC25345	3		inactive
109	CG5877	DRSC19963	5		inactive
110	CG5877	DRSC28413	6		inactive
